Where a name gives a salt, the structure may show the parent alone. The list shows a part of the results. Repeats are few or missing, and single values can be far off.
How the values were obtained:
Assay in all cases: reduction in cell viability relative to untreated/vehicle; higher = more growth inhibition
Conditions in all cases: 200 nM; 72 h
M229P = test system: M229P (parental melanoma line)
M229R = test system: M229R (matched melanoma line resistant to BRAF inhibitors)
M238P = test system: M238P (parental melanoma line)
M238R = test system: M238R (matched melanoma line resistant to BRAF inhibitors)
M249P = test system: M249P (parental melanoma line)
M249R = test system: M249R (matched melanoma line resistant to BRAF inhibitors)
UACC62P = test system: UACC62P (parental melanoma line)
UACC62R = test system: UACC62R (matched melanoma line resistant to BRAF inhibitors)

Measured: reduction in cell viability

O=[N+]([O-])c1ccc(Nc2ccccc2-c2ccccc2)c2nonc12
< 0%: all assays above

CN1CC(=O)N=C1NC(=O)Nc1cccc(Cl)c1 [Fenobam]
4.88%: M229R
< 0%: all other assays above

CC(C)c1cc(C(=O)N2Cc3ccc(CN4CCN(C)CC4)cc3C2)c(O)cc1O
37.4%: M249R
58.2%: M229P
52.3%: M238P
67%: M229R
31.3%: M249P
46.2%: M238R
66.9%: UACC62R
62.5%: UACC62P

CCC(C)(Oc1ccc(C2(c3ccc(OC(C)(CC)C(=O)O)cc3)CCCCC2)cc1)C(=O)O (stereo not given) [Clinofibrate]
< 0%: all assays above

Cc1ccc(C(C)(O)c2nc3ccccc3s2)c(C)c1 (stereo not given)
< 0%: all assays above

CN1C(C(=O)Nc2ccccn2)=C(O)c2sccc2S1(=O)=O [Tenoxicam]
< 0%: all assays above

COc1cc2c(cc1OC)[C@@H]1C(=O)c3ccc4c(c3O[C@@H]1CO2)C=CC(C)(C)O4 [Deguelin]
< 0%: all assays above

Cc1cccc(Nc2nc(-c3ccncc3)cs2)c1
8.58%: M249R
3.83%: UACC62P
25.2%: M229R
< 0%: all other assays above

N#CC1(c2ccc(NC(=O)c3cccnc3NCc3ccncc3)cc2)CCCC1 [Apatinib]
< 0%: all assays above

COc1cccc2cc(-c3nc([C@H]4CC[C@H](C(=O)O)CC4)n4ncnc(N)c34)[nH]c12
7.78%: UACC62P
8.4%: M238P
8.42%: M249R
< 0%: all other assays above

CCN(CC)C(=S)SSC(=S)N(CC)CC [Disulfiram]
89.6%: M238P
70.9%: M249P
< 0%: UACC62R
81.3%: UACC62P
73%: M229P
71.2%: M238R
78.2%: M249R
52.5%: M229R

C[C@H](NCc1ccc(OCc2cccc(F)c2)cc1)C(N)=O [Safinamide mesilate]
8.92%: UACC62P
< 0%: all other assays above

Cc1noc(-c2ccc(CSCCC(=O)O)cc2)c1NC(=O)OC(C)c1ccccc1Cl (stereo not given)
2.54%: M249R
< 0%: all other assays above

CC(=O)N1CCN(c2ccc(OCC3COC(Cn4ccnc4)(c4ccc(Cl)cc4Cl)O3)cc2)CC1 (stereo not given) [Ketoconazole]
0.56%: M229R
< 0%: all other assays above

COc1ccccc1OCC(O)CN1CCN(CC(=O)Nc2c(C)cccc2C)CC1 (stereo not given) [Ranolazine]
< 0%: all assays above

COc1ccc2c(c1)c(C1=C(c3c[nH]c4ccccc34)C(=O)NC1=O)cn2CCCN(C)C
< 0%: all assays above

O=c1c(O)c(-c2ccc(O)c(O)c2)oc2cc(O)cc(O)c12 [Quercetine]
< 0%: all assays above

CCc1nc(-c2cccc(C)c2)c(-c2ccnc(NC(=O)c3ccccc3)c2)s1
< 0%: all assays above

Fc1ccc([C@@H]2CCNC[C@H]2COc2ccc3c(c2)OCO3)cc1 [Paroxetine]
< 0%: all assays above

Cc1ccc(S(=O)(=O)OCC(=O)Nc2ccc(C(=O)O)c(O)c2)cc1
< 0%: all assays above

Cn1cc(-c2ccncc2)c(-c2ccc(OCc3ccc4ccccc4n3)cc2)n1
< 0%: all assays above

O=C(O)c1ccc(-c2cc3cccnc3c(-c3ccc4nonc4c3)n2)cc1
< 0%: all assays above

NCCCCCC(=O)O [Aminocaproic acid]
< 0%: all assays above

N[C@@H](CSC(c1ccccc1)(c1ccccc1)c1ccccc1)C(=O)O [S-Trityl-L-cysteine]
< 0%: all assays above

Cc1cnc(C(=O)O)c[n+]1[O-] [Acipimox]
< 0%: all assays above

Cc1cc(Nc2cc(CN3CCOCC3)c3nc(C)c(Cc4ccc(Cl)cc4F)n3n2)n[nH]1 [Gandotinib]
12%: M229R
< 0%: all other assays above

CC[C@]1(O)C[C@@H]2CN(CCc3c([nH]c4ccccc34)[C@@](C(=O)OC)(c3cc4c(cc3OC)N(C)[C@H]3[C@@](O)(C(N)=O)[C@H](O)[C@]5(CC)C=CCN6CC[C@]43[C@@H]65)C2)C1 [Vindesine sulfate salt]
56.5%: M238R
49.4%: UACC62P
78.5%: UACC62R
52.8%: M229R
59.3%: M249P
34%: M229P
62.1%: M238P
47%: M249R

Cc1noc(NS(=O)(=O)c2ccc(N)cc2)c1C [Sulfafurazole]
13.9%: M249R
0.27%: UACC62P
< 0%: all other assays above

COc1cc2ncnc(-n3nc(-c4ccccn4)nc3N)c2cc1OC
< 0%: all assays above

CCC[C@@H]1C[C@@H](C(=O)N[C@@H]([C@H]2O[C@H](SC)[C@H](O)[C@@H](O)[C@H]2O)[C@@H](C)O)N(C)C1 [Lincomycin hydrochloride]
< 0%: all assays above

Cn1cc(C[C@@H](N)C(=O)O)c2ccccc21 [Indoximod]
< 0%: all assays above

CC/C(=C(/CC)c1ccc(O)cc1)c1ccc(O)cc1 [Diethylstilbestrol]
5.07%: M229R
< 0%: all other assays above

Oc1cc(-c2nc(-c3ccccc3)[nH]c2-c2ccncc2)ccc1Cl
12.6%: M249P
9.93%: M229P
45.1%: UACC62P
24.1%: M238P
< 0%: all other assays above

CCCCCCCCCCCCc1ccc(S(=O)(=O)Nc2nncs2)cc1
2.12%: UACC62P
< 0%: all other assays above

CN(C)/N=N/c1[nH]cnc1C(N)=O [Dacarbazine]
0.95%: M249R
< 0%: all other assays above

NS(=O)(=O)c1cc(C(=O)O)c(NCc2ccco2)cc1Cl [Furosemide]
9.49%: UACC62P
2.85%: M229R
< 0%: all other assays above

CCCCCCCCCCCCCCCCCCCCCCO [Docosanol]
< 0%: all assays above

Nc1ccn([C@@H]2O[C@H](CO)[C@@H](O)[C@@H]2O)c(=O)n1 [Cytarabine]
51.7%: M238P
14.9%: M229R
11%: M249P
26.4%: M238R
< 0%: M229P | UACC62P
17.5%: M249R
83.4%: UACC62R

Sorted by heavy-atom count (low to high): part of the list above.
CN1C(C(=O)Nc2ccccn2)=C(O)c2sccc2S1(=O)=O [Tenoxicam]
< 0%: all assays above

Fc1ccc([C@@H]2CCNC[C@H]2COc2ccc3c(c2)OCO3)cc1 [Paroxetine]
< 0%: all assays above

COc1cc2ncnc(-n3nc(-c4ccccn4)nc3N)c2cc1OC
< 0%: all assays above

Continued:

Nc1ccc(S(=O)(=O)Nc2ccnn2-c2ccccc2)cc1 [Sulfaphenazole]
< 0%: all assays above

COc1ccc2c3c1O[C@H]1C[C@@H](O)C=C[C@@]31CCN(C)C2 [Galantamine hydrobromide]
< 0%: all assays above

COC(=O)Nc1nc2cc(Sc3ccccc3)ccc2[nH]1 [Fenbendazole]
35.2%: M229R
74.3%: UACC62R
33.2%: M238P
38.9%: UACC62P
17.9%: M229P
17.8%: M238R
38.1%: M249R
24.7%: M249P

CC[C@H]1OC(=O)[C@H](C)[C@@H](O[C@H]2C[C@@](C)(OC)[C@@H](O)[C@H](C)O2)[C@H](C)[C@@H](O[C@@H]2O[C@H](C)C[C@H](N(C)C)[C@H]2O)[C@](C)(O)C[C@@H](C)CN(C)[C@H](C)[C@@H](O)[C@]1(C)O [Azithromycin]
2.57%: UACC62P
< 0%: all other assays above

COc1ccc(-c2coc3cc(O)ccc3c2=O)cc1 [Formononetin]
2.82%: UACC62P
< 0%: all other assays above

CC1(C)SCCN(S(=O)(=O)c2ccc(OCC#CCO)cc2)[C@H]1C(=O)NO [Apratastat]
< 0%: all assays above

C[C@@H]1CN(CC(=O)Nc2ccc3c(c2)Cc2cccc(-c4cc(=O)cc(N5CCOCC5)o4)c2S3)C[C@H](C)O1
< 0%: all assays above
